Data from EP0239801B1, “Plant cells resistant to herbicidal glutamine synthetase inhibitors” (THE GENERAL HOSPITAL CORPORATION, priority 1986, dated 1987).
At least one structure is not confirmed: it was looked up by name or label, or the drawing left a doubt.

Tests used:
[1] = system: wild type (PPT-sensitive) alfalfa cell line; experiment: Growth of suspension cultures (packed cell volume), wild-type cells; type: cell-based; conditions: packed cell volume of the suspension cultures
[2] = system: variant PPT resistant alfalfa cell line; experiment: Growth of suspension cultures (packed cell volume), selected resistant cells; type: cell-based
Description: The amide nitrogen of glutamine provides the source of nitrogen for many biosynthetic reactions, indicating a central role for GS in nitrogen metabolism.
Selection is carried out in an appropriate culture medium by cultivating plant cells in the presence of stepwise increases of the herbicidal GS-inhibitor in the medium. After a given period of time has elapsed, such as, for example, a few weeks to several months, it is possible to select a cell population which is several-fold more resistant to the herbicidal GS-inhibitor than the original plant cells. For example, when the cells are alfalfa and the inhibitor is PPT, it has been possible to obtain a PPT-resistant alfalfa cell line after one year of stepwise PPT increases, which line was 20-fold more resistant to PPT than the original line. […] This was never possible by plating wild-type cells.
An alfalfa cell line which is able to grow in the presence of 3 mM L-phosphinothricin in the culture medium was selected. Alfalfa was chosen since it is one of the model plants in which the regeneration of a whole plant from single isolated cells or protoplasts can be readily achieved.
The selection of the phosphinothricin resistant alfalfa line was done by stepwise increase of the inhibitor concentration in the liquid culture medium. […]

## CP(=O)(O)CC[C@H](N)C(=O)O [L-phosphinothricin]
[1]
  concentration by which wild-type cells were completely inhibited: 2.5 x 10⁻⁵ M
[2]
  concentration in the presence of which resistant cells grew as well as in its absence: 5 x 10⁻⁴ M
